Among the data in PubChem BioAssay AID2685 (National Center for Advancing Translational Sciences (NCATS), 2010) are cell number change and AC50 values, retold here.

The assay can be described thus: qHTS Assay for Lipid Storage Modulators in Drosophila S3 Cells.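 For cell number change: cells counted by Cell Tracker Red CMTPX staining in the red channel.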 To be noted: BODIPY lipid droplet fluorescence, 18-24 h; for cell number change: measured here: cell count max response, cells fed with added oleic acid. The method in brief: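 Drosophila S3 cells got compounds at several concentrations plus oleic acid (400 uM solution). Laser-scanning cytometry with 488 nm excitation read lipid droplets at 500-530 nm and cells at 575-640 nm. Percent activity was relative to 20 uM Triacsin C.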
A general note: In qHTS, concentration-response curves come from the screen itself.

[1] abbreviates: measured here: lipid fluorescence (Fed channel) AC50, cells fed with added oleic acid.
Where [2] appears, read: measured here: cell number channel AC50, cells fed with added oleic acid.

Some of the results follow. The main result of the screen is listed elsewhere. These columns were measured beside it and carry no call. Most of these compounds were active or inconclusive in the main read-out, so they are no random draw. The note in brackets gives the kind of curve behind each potency; many fits are weak.

On to `CCNC(=O)c1ccc(NS(=O)(=O)c2ccc3[nH]c(=O)[nH]c3c2)cc1`, for which the cell number change is 0.54%. Besides, under setting [1], the AC50 was 0.58 µM [falling, single point].
Regarding `O=C(O)C1(O)C[C@H](O)C(O)[C@@H](O)C1` (stereo partly specified), under setting [1], the AC50 is 0.58 µM [falling, single point].
For `CC(C)N=c1scc(-c2ccco2)n1/N=C/c1ccc(O)c(O)c1`, the cell number change was -42.9%. Moreover, under setting [2], the AC50 is 6.51 µM [falling, partial curve]. Further, the AC50 under setting [1] was 25.9 µM [falling, single point].
Take `N#Cc1ccccc1S(=O)(=O)N1CCN(c2nc(-c3cccnc3)nc3ccccc23)CC1`: the AC50 under setting [1] was 18.4 µM [falling, partial curve].
With `O=C(C1CC(=O)N(c2ccc(F)cc2)C1)N1CCN(c2ccc(F)cc2)CC1` (stereo unspecified), the cell number change was -3.18%. The concentration at half-maximal activity (AC50) under setting [1] is 0.411 µM [falling, single point].
For `COc1ccc(-c2noc(COc3ccc(Cl)c(C)c3)n2)cc1`, the cell number change is -6.37%.
On to `CC(=C/C(=O)O)/C=C/c1cccs1`, for which the cell number change stood at 2.95%. The AC50 under setting [1] was 0.366 µM [falling, full curve].
`O=S(=O)(c1ccc(SCc2ccc(Br)cc2)nc1)N1CCCCC1`: the cell number change stood at 125%. Also, under setting [2], the AC50 was 0.731 µM [rising, full curve, poor fit].
`COc1ccc(/C=N/NC(=O)c2ccccc2)cc1OS(=O)(=O)c1ccccc1`: the AC50 under setting [1] is 0.259 µM [rising, partial curve].
With `Cc1csc(=O)n1CC(=O)Nc1nc2ccccc2s1`, the cell number change was -9.4%. The AC50 under setting [1] was 29.1 µM [falling, single point].
As to `CCOc1nc(SCCOc2ccc(C)cc2)nc(N(C)C)n1`, the cell number change was -34.3%. For the same compound, the AC50 under setting [2] was 16.4 µM [falling, single point]. Further, the AC50 under setting [1] was 18.4 µM [falling, partial curve].
Regarding `COCCNC(=O)c1cc(C(=O)CC(C)C)c[nH]1`, the cell number change is -44.5%. Moreover, under setting [2], the AC50 was 29.1 µM [falling, single point].
As for `CCn1c(COc2cccc(OC)c2)nnc1SCC(=O)NCC1CCCO1` (stereo unspecified), the cell number change worked out at 12.8%. For the same compound, the half-maximal activity concentration (AC50) under setting [1] is 20.6 µM [rising, single point].
With `COCCNCC(=O)NC12CC3CC(CC(C3)C1)C2`, the cell number change came out at 18.9%. In addition, the half-maximal activity concentration (AC50) under setting [1] is 3.26 µM [rising, partial curve, poor fit].
On to `CCCN1C(=O)/C(=C/c2c(N3CCNC(=O)C3CC(=O)OCC)nc3c(C)cccn3c2=O)SC1=S` (stereo unspecified), for which the AC50 under setting [2] was 6.51 µM [falling, partial curve, poor fit].
For `CC(NC(=O)COc1ncnc2cc([N+](=O)[O-])ccc12)c1ccccc1` (stereo unspecified), the cell number change is -15.1%. In addition, the AC50 under setting [2] was 0.326 µM [falling, partial curve, poor fit]. Moreover, the AC50 under setting [1] is 16.4 µM [rising, single point].
As to `COc1cc2c(cc1OC)CN(CC(=O)Nc1ccc(S(=O)(=O)N(C)C)cc1)CC2`, the cell number change worked out at 47.4%. Under setting [2], the AC50 is 0.231 µM [rising, full curve]. Besides, under setting [1], the AC50 was 0.146 µM [rising, full curve].
As to `Cn1c(=O)[nH]c(=O)c2c1nc(N/N=C/c1ccncc1)n2Cc1ccc(F)cc1`, the cell number change was 0.121%. Besides, under setting [1], the half-maximal activity concentration (AC50) is 2.59 µM [rising, full curve].
Turning to `O=C(O)c1ccc(N=Nc2c(O)[nH]c3ccccc23)cc1`, the cell number change was -13.5%. Also, under setting [1], the concentration at half-maximal activity (AC50) is 9.2 µM [falling, single point].
On to `O=C(Nc1ccc(Cl)cn1)C1CCN(S(=O)(=O)c2cccs2)CC1`, for which the cell number change was -31.7%. Besides, the half-maximal activity concentration (AC50) under setting [1] is 0.82 µM [falling, full curve, poor fit].
On to `O=C(Nc1ccccc1)c1ccc(NC(=O)C2CC2)cc1`, for which the cell number change stood at 30.2%. Besides, the AC50 under setting [2] is 11.6 µM [rising, partial curve, poor fit]. Moreover, the AC50 under setting [1] is 1.46 µM [rising, partial curve].
As to `Cc1nc(N(C)Cc2ccccc2)c2nnn(Cc3ccccc3)c2n1`, the AC50 under setting [1] was 0.58 µM [rising, single point].
Turning to `Cc1cccc(NC(=O)Nc2cccnc2)c1C`, the cell number change came to 19.9%. For the same compound, the AC50 under setting [1] is 3.26 µM [rising, partial curve].
Take `COC(=O)c1[nH]c2ccc(C)cc2c1NC(=O)C(C)N1CCN(C2CCCCC2)CC1` (stereo unspecified): the cell number change is -0.0646%. The AC50 under setting [1] is 4.61 µM [falling, partial curve].
Consider `CCN(CC(=O)Nc1c(F)cccc1F)C(=O)/C=C/c1ccc(Br)s1`, for which the concentration at half-maximal activity (AC50) is 0.517 µM [falling, single point] under setting [2] and 29.1 µM [falling, single point] under setting [1].
`COc1ccc(Cc2nc3ccc(C(=O)NCc4ncc(C)[nH]4)cc3o2)cc1OC`: under setting [1], the AC50 was 0.116 µM [falling, partial curve, poor fit].
For the compound `CCOC(=O)CCN1C(=O)c2ccccc2Sc2ncccc21`, the cell number change is -9.86%.
As to `CCOc1ccc2nc(NC(=O)c3ccccn3)sc2c1`, the cell number change was -28.3%. Under setting [1], the AC50 is 18.4 µM [falling, partial curve].
On to `CS(=O)(=O)N(CC(=O)Nc1ccccc1C(=O)NCc1ccccc1)c1ccc2c(c1)OCCO2`, for which the cell number change was determined as 9.41%. Under setting [2], the AC50 is 2.31 µM [rising, single point]. Also, the AC50 under setting [1] is 3.26 µM [rising, partial curve].
Take `O=C(Nc1ccc(S(=O)(=O)NC2=NCCCCC2)cc1)c1ccc(Cl)cc1Cl`: the cell number change is 18%. In addition, the AC50 under setting [1] is 29.1 µM [rising, single point].
With `Nc1nc(Nc2ccccc2F)nc(N2CCCC2)c1[N+](=O)[O-]`, the cell number change was -2.7%.
Turning to `CCCN(C(=O)c1cc(S(=O)(=O)N(C)c2ccc(OCC)cc2)ccc1C)C1CCS(=O)(=O)C1` (stereo unspecified), the cell number change is -0.478%. The AC50 under setting [1] is 0.461 µM [falling, single point].
Turning to `Cn1c(CCN2CCCCC2)nc2cc(NC(=O)Nc3ccccc3)ccc21`, the cell number change was -5.5%. Besides, the AC50 under setting [1] was 3.26 µM [falling, partial curve].
As for `COc1ccc(C2N=C(Nc3ccc(C)cc3)Nc3nc(C)cc(=O)n32)cc1` (stereo unspecified), the cell number change is 16.8%. Moreover, under setting [1], the AC50 was 13 µM [rising, single point].
Take `CCOC(=O)N1CCN(C(=O)Cc2ccc(Cl)cc2)CC1`: the cell number change stood at 6.22%. Moreover, under setting [1], the AC50 is 0.58 µM [falling, partial curve, poor fit].
Regarding `Cc1cc(=O)[nH]c(N/N=C/c2ccc(O)c(O)c2)n1`, the AC50 under setting [2] is 6.51 µM [rising, single point] and the AC50 under setting [1] is 6.51 µM [rising, single point].
`O=C(C1CCN(S(=O)(=O)N2CCC3(CC2)OCCO3)CC1)N1CCC(Cc2ccccc2)CC1`: the cell number change was -31.4%. The concentration at half-maximal activity (AC50) under setting [2] was 23.1 µM [falling, single point]. Under setting [1], the AC50 was 29.1 µM [falling, single point].
In the case of `CCOc1ccc(N2C(=O)CC(NCCNc3ccc(C(=O)c4cccs4)cc3)C2=O)cc1` (stereo unspecified), the cell number change is -17.7%. Moreover, under setting [2], the AC50 was 0.00461 µM [falling, full curve, poor fit].
Consider `CC1CCCCC1NS(=O)(=O)c1ccc(S(=O)(=O)N2CCN(CCC#N)CC2)cc1` (stereo unspecified), for which the AC50 under setting [1] is 6.51 µM [rising, single point].
For the compound `CCOC(=O)c1sc(N/N=C/c2cccc(C)c2)nc1C`, the cell number change is -41.7%. For the same compound, under setting [2], the AC50 is 23.1 µM [falling, single point]. Moreover, the AC50 under setting [1] is 29.1 µM [falling, single point].
Turning to `CC(=O)Nc1ccc(OCc2ccc3c(c2)OCO3)cc1`, the cell number change was -24.6%. Also, under setting [1], the AC50 was 3.26 µM [rising, full curve].
Turning to `CCOC(=O)CN(C(=O)CNC(=O)c1cccs1)C(C(=O)NC1CCCC1)c1cccnc1` (stereo unspecified), the cell number change turned out to be 1.45%.
Regarding `COc1cc(-c2cc(C(=O)Nc3ccccc3N3CCOCC3)c3ccccc3n2)cc(OC)c1OC`, the AC50 reads like this: under setting [2], 0.00517 µM [rising, full curve, poor fit]; under setting [1], 0.517 µM [rising, partial curve].
With `O=C1c2cccc3cccc(c23)N1Cc1cccc(F)c1`, the cell number change turned out to be 4.84%. Also, the AC50 under setting [1] is 32.6 µM [falling, single point].
For the compound `O=C(NCCc1c[nH]c2ccccc12)c1ccc([N+](=O)[O-])cc1`, the cell number change was -13.7%. The half-maximal activity concentration (AC50) under setting [1] is 3.66 µM [rising, single point].
Regarding `CC1CC(C)CN(C(=O)CN2C(=O)NC(c3ccccc3)(c3ccccc3)C2=O)C1` (stereo unspecified), the cell number change was -12.9%. Moreover, the AC50 under setting [2] is 0.13 µM [falling, full curve, poor fit]. The AC50 under setting [1] was 0.116 µM [falling, full curve, poor fit].
Take `Cc1ccc(P(=O)(CC(=O)O)c2ccc(C)cc2)cc1`: the cell number change is -1.21%. Moreover, the concentration at half-maximal activity (AC50) under setting [1] was 4.61 µM [falling, partial curve].
As to `Cc1ccc(NC(=O)C(C)Sc2nc(-c3ccccc3)cc(=O)[nH]2)cc1` (stereo unspecified), the cell number change came to 23.4%.
In the case of `CCc1ccc(NC(=O)CSc2nnc(-c3cnccn3)n2C)cc1`, the cell number change was -3.99%. In addition, the AC50 under setting [1] was 11.6 µM [rising, partial curve].
For `COc1ccc(Cc2nnc(NC(=O)Nc3ccccc3F)s2)cc1`, the cell number change turned out to be 0.73%.
On to `CCc1c(C)sc(NC(=O)CN2CCN(C(=O)c3ccco3)CC2)c1C(=O)OC`, for which the cell number change is -25.7%.
Turning to `COC(=O)c1c(C)[nH]c(O)c1C=Nc1ccc(C(C)C)cc1`, the cell number change is -24.1%.
`CCCCN(CC)CCNC(=O)c1[nH]c(C)c(C(C)=O)c1C`: the cell number change was -99.9%. Besides, the AC50 under setting [2] was 18.4 µM [falling, single point].
For the compound `CCCCn1c(N)c(N(CC)C(=O)CSCc2c(C)noc2C)c(=O)[nH]c1=O`, the cell number change is -0.495%. The AC50 under setting [1] was 29.1 µM [rising, single point].
With `O=C(/C(=C/c1ccccc1Cl)c1ccccc1)N1CCOCC1`, the cell number change was -57.9%. The AC50 under setting [2] is 23.1 µM [falling, partial curve]. Besides, the AC50 under setting [1] is 29.1 µM [falling, single point].
In the case of `NS(=O)(=O)c1ccc(O)c(N2C(=O)c3cccc4c(C(=O)c5ccccc5)ccc(c34)C2=O)c1`, the cell number change stood at 27.1%.
Same read-out and setting: in the case of `Cc1ccc(CN2CC(C(=O)N3CCN(S(=O)(=O)c4ccc(C)cc4C)CC3)CC2=O)cc1` (stereo unspecified) it was -19.9%.
As for `CCOc1ccc(C(=O)NC2CC3CCCC(C2)N3Cc2ccccc2)cc1` (stereo unspecified), the cell number change is -6.74%.
Regarding `O=C(CSc1nnnn1Cc1ccccc1)Nc1ccc2c(c1)OCO2`, the cell number change is -29.1%. For the same compound, under setting [2], the AC50 is 4.61 µM [falling, full curve, poor fit]. Moreover, the AC50 under setting [1] was 6.51 µM [falling, single point].

Broadly, the AC50 is the concentration at which the activity in the assay is half-maximal. Higher therefore signals activity only at high concentration.
